Assay results from article PMC11678778, “Anti-Inflammatory Properties of Novel 1,2-Benzothiazine Derivatives and Their Interaction with Phospholipid Model Membranes” (Membranes, 2024).

Experiment: Differential scanning calorimetry with phospholipid bilayers
Format: physicochemical
Conditions: for reduction in the DPPC main transition temperature compared to pure DPPC: highest compound/lipid molar ratio (0.12); for impact on the DPPC main transition temperature (in words): molar ratios 0.06-0.12

**Q.** For `COc1ccc(C(=O)C2=C(O)c3ccccc3S(=O)(=O)N2CCCN2CCN(c3ncccn3)CC2)cc1` [BS24], which “reduction in the DPPC main transition temperature compared to pure DPPC” value is on record?
**A.** The value was 4.425 °C.

**Q.** For `O=C(C1=C(O)c2ccccc2S(=O)(=O)N1CCCN1CCN(c2ccccn2)CC1)c1ccc(F)cc1` [BS26], which “impact on the DPPC main transition temperature (in words)” value is on record?
**A.** Its value is “smallest impact on the transition temperature”.

**Q.** Which results are given for `O=C(C1=C(O)c2ccccc2S(=O)(=O)N1CCCN1CCN(c2ncccn2)CC1)c1ccc(F)cc1` [BS27]?
**A.** reduction in the DPPC main transition temperature compared to pure DPPC: 2 °C; impact on the DPPC main transition temperature (in words): smallest impact on the transition temperature
